Results are given in words; binding and its absence hold for the method and conditions named. Binding can be weak; no strength is given. Blank lines part the entries; values can stand above or below the substance they belong to.
Key:
Assay in all cases: cryo-EM structure
[1] = biological target: T1, MNS1 (bovine (endogenous in bovine sperm)) (UniProt Q2KIQ2)
T1 sequence: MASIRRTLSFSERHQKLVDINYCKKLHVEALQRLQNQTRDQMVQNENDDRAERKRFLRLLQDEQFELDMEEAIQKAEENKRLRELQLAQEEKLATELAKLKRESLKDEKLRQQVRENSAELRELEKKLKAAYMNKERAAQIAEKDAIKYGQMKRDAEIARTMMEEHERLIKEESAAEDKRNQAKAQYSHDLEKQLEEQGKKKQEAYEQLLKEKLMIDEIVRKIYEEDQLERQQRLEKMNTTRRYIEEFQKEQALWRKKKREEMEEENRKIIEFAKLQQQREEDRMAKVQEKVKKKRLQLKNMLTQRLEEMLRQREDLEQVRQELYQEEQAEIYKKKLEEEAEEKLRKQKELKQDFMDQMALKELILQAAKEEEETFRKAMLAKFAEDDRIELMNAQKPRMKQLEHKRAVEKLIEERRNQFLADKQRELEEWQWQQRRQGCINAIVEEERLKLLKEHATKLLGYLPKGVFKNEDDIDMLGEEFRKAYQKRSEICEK

Protein sequences, listed by entry. Tags and fused reporters are not part of them. Lines headed by an entry give the natural chain unless they say otherwise; changes in a name come on top.
UniProt Q3MHM5: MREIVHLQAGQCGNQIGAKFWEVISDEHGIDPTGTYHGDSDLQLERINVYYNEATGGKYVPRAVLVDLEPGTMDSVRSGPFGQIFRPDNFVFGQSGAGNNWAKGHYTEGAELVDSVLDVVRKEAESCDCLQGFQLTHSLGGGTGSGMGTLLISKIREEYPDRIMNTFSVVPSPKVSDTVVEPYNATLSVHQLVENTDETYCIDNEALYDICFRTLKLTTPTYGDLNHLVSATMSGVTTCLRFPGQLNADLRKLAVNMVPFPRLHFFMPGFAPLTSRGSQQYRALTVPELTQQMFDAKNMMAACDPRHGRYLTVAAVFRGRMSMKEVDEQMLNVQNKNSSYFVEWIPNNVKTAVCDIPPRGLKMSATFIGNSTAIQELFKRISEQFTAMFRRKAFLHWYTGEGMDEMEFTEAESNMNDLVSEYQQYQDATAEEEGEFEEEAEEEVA
UniProt Q32KN8: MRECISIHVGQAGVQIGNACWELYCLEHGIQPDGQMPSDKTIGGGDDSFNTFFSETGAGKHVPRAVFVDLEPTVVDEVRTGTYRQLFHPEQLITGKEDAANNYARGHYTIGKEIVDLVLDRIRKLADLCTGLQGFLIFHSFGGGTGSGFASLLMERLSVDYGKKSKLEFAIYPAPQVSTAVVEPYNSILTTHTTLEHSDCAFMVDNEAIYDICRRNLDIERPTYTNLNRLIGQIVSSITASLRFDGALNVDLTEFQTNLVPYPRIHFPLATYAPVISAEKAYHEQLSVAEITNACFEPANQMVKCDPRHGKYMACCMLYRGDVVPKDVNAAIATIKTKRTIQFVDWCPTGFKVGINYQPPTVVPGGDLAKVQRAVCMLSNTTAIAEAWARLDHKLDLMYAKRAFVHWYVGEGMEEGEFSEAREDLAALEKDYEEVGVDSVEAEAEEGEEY
UniProt Q32KP0: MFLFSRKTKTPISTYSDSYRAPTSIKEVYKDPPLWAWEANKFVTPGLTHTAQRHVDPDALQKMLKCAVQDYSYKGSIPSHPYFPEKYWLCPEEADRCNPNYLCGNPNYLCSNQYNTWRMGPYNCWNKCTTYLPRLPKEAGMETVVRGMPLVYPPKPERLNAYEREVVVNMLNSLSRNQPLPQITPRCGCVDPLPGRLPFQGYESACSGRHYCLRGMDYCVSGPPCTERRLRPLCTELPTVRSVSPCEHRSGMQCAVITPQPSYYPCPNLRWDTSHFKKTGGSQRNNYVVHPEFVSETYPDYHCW

[2] = biological target: T2, Tektin-5 (bovine (endogenous in bovine sperm)) (UniProt Q2YDI7)
T2 sequence: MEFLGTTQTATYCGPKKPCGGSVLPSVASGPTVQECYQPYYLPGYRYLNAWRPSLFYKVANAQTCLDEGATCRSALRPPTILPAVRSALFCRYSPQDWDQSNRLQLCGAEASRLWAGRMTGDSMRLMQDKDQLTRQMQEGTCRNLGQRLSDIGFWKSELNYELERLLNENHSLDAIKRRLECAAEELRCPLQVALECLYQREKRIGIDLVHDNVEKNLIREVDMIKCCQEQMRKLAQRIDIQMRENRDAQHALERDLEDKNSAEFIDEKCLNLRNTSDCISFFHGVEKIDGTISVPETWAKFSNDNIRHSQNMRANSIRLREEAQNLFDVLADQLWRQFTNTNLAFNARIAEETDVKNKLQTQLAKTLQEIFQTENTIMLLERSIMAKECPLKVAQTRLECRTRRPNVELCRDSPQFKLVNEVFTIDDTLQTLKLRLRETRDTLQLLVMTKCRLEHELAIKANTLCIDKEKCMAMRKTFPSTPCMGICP

[3] = biological target: β-tubulin (TUBB4B) (bovine (endogenous in bovine sperm)) (UniProt Q3MHM5)
[4] = biological target: α-tubulin (TUBA3) (bovine (endogenous in bovine sperm)) (UniProt Q32KN8)
[5] = biological target: T3, Tektin-1 (bovine (endogenous in bovine sperm)) (UniProt Q32KZ9)
T3 sequence: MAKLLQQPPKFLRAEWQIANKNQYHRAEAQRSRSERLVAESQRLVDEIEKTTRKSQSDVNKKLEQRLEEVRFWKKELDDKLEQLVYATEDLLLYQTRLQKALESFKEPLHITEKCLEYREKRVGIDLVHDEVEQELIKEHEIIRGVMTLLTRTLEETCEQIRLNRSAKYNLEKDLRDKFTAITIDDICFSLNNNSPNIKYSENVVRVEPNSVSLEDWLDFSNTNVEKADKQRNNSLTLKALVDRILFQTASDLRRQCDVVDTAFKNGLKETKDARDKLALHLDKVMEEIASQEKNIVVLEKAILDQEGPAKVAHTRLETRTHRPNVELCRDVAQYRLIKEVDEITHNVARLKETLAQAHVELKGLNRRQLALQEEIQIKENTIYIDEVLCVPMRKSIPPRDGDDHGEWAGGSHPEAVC

[6] = biological target: T4, TEKTIP (bovine (endogenous in bovine sperm)) (UniProt Q2M2T2)
T4 sequence: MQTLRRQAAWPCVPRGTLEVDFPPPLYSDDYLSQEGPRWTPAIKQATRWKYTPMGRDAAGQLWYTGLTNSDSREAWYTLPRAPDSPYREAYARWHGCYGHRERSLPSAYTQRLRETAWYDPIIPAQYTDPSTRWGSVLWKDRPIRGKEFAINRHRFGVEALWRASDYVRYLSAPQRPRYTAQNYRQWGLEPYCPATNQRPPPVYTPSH

[7] = biological target: T5, Tektin-4 (bovine (endogenous in bovine sperm)) (UniProt Q2TA38)
T5 sequence: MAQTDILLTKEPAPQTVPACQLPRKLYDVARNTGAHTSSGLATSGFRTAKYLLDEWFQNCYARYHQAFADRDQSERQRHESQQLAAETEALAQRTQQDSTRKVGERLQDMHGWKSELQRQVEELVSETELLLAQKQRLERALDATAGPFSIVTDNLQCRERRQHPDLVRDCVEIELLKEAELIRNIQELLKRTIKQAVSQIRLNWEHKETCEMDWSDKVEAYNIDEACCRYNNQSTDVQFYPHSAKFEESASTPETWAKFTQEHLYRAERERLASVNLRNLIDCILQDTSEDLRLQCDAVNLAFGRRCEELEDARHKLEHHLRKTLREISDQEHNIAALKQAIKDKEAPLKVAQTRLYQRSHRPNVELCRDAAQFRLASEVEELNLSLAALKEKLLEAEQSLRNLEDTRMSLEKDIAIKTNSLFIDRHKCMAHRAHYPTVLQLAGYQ

binding [1]: binds | binding [2]: binds
Substance: C7ORF31 (bovine (endogenous in bovine sperm))

binding [3]: binds | binding [4]: binds | binding [5]: binds
Substance: PPP1R32 (protein phosphatase 1 regulatory subunit 32) (from UniProt A0A3Q1M7R5)

binding [6]: binds | binding [7]: binds
Substance: SMRP1 (spermatid-specific manchette-related protein 1) (from UniProt Q32KP0)

binding [7]: binds
Substance: tubulin-and tektin-bridging protein (TTBP) (from UniProt A0A3Q1M4T9)

Source: doi:10.1101/2022.09.29.510157
